Experimental data: PubChem BioAssay AID1671195 (Yale University, 2021)
Shown is one part, drawn at random, of about 22,000 reagents. In the full data, about 1,510 (6.9%) were called active. 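Active includes knockdowns raising or lowering LDL uptake; positive z-scores mean more uptake, negative mean less.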

Assay: 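Knockdowns that increase or decrease uptake of fluorescent LDL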 (primary screen)
System: human Huh7 hepatoma cells
Knock-down reagent: siRNA pool against human genes, 18 nM
Timing: about 2 to 2.5 days of knockdown, then 8 h LDL uptake
Treatment: DiI-labelled LDL at 30 µg/ml for 8 h, in lipoprotein-deficient serum medium
Read-out: 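Per-cell DiI-LDL intensity by automated imaging; well means scaled to the plate median and given as a robust z-score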
Scale: robust z-score: higher = more LDL uptake after knockdown
Rule for the call: 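a gene counts as active if at least two replicate z-scores exceed ±2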

The opening 3 records, to show the layout:
gene knocked down | robust z-score, replicate 1 | robust z-score, replicate 2 | robust z-score, replicate 3 | Call
LOC440752 (retired record) | 0.0811 | 2.13 | 2.06 | active
GPR65 (G protein-coupled receptor 65) | 1.4 | 0.28 | 1.2 | inactive
LOC441634 (retired record) | 0.735 | 0.847 | 0.386 | inactive

The list itself, from the start:
gene knocked down | robust z-score, replicate 1 | robust z-score, replicate 2 | robust z-score, replicate 3 | Call
LOC440752 (retired record) | 0.0811 | 2.13 | 2.06 | active
GPR65 (G protein-coupled receptor 65) | 1.4 | 0.28 | 1.2 | inactive
LOC441634 (retired record) | 0.735 | 0.847 | 0.386 | inactive
RNF114 (ring finger protein 114) | -1.04 | -0.796 | -0.795 | inactive
LOC401256 (retired record) | 1.08 | 0.279 | 0.334 | inactive
RCHY1 (ring finger and CHY zinc finger domain containing 1) | 1.79 | 1.66 | 2.59 | inactive
LINC01555 (long independently transcribed non-coding RNA 1555) | 0.386 | 0.0702 | 0.0103 | inactive
IRGC (immunity related GTPase cinema) | -1.9 | -1.92 | -1.52 | inactive
LDOC1 (LDOC1 regulator of NFKB signaling) | -1.08 | -0.666 | 0.392 | inactive
LOC387709 (retired record) | 0.0896 | 0.0254 | 0.807 | inactive
TRAPPC11 (trafficking protein particle complex subunit 11) | 0.408 | 0.0271 | 0.163 | inactive
C8A (complement C8 alpha chain) | 0.489 | 0.0481 | 1.35 | inactive
GFOD3P | -0.421 | -0.163 | -0.317 | inactive
KHDRBS3 | -0.151 | -0.925 | -0.0813 | inactive
CTC1 (CST telomere replication complex component 1) | 1.6 | 0.909 | 1.56 | inactive
B4GALNT3 (beta-1,4-N-acetyl-galactosaminyltransferase 3) | -1.21 | -0.65 | -1.07 | inactive
DAPL1 (death associated protein like 1) | 1.44 | 0.408 | 1.08 | inactive
TIGIT (T cell immunoreceptor with Ig and ITIM domains) | 0.629 | 0.737 | 0.795 | inactive
GHRHR (growth hormone releasing hormone receptor) | -0.3 | 1.31 | 0.0604 | inactive
EN1 (engrailed homeobox 1) | -0.901 | -1.86 | -1.48 | inactive
LINC-PINT | 0.683 | 0.196 | 0.0775 | inactive
ATP1B3 (ATPase Na+/K+ transporting subunit beta 3) | 0.77 | 1.36 | 0.389 | inactive
CIRBP-AS1 (CIRBP antisense RNA 1) | -0.19 | 0.716 | 0.223 | inactive
PDE7B (phosphodiesterase 7B) | 0.807 | 0.419 | 0.716 | inactive
HAGHL (hydroxyacylglutathione hydrolase like) | -1.06 | -1.33 | -1.15 | inactive
ISOC1 (isochorismatase domain containing 1) | -0.765 | -0.322 | -2.42 | inactive
LCNL1 (lipocalin like 1) | 0.11 | -0.168 | -0.112 | inactive
OOEP (oocyte expressed protein) | 0.614 | 0.503 | 0.486 | inactive
KIZ (kizuna centrosomal protein) | 0.776 | -0.063 | 0.24 | inactive
CGNL1 (cingulin like 1) | 0.926 | 0.373 | 0.52 | inactive
RANBP17 (RAN binding protein 17) | 1.1 | 1.53 | 1.54 | inactive
SPATA2 (spermatogenesis associated 2) | -1.21 | -0.289 | -1.52 | inactive
TOMM34 (translocase of outer mitochondrial membrane 34) | 0.483 | 0.463 | 1.06 | inactive
OR4K1 (olfactory receptor family 4 subfamily K member 1) | 0.558 | 0.115 | 0.487 | inactive
IL22RA2 (interleukin 22 receptor subunit alpha 2) | -0.789 | 1.62 | -0.482 | inactive
IFT70B (intraflagellar transport 70B) | 0.848 | 0.404 | -0.506 | inactive
ADAMTS3 (ADAM metallopeptidase with thrombospondin type 1 motif 3) | -0.257 | -0.106 | -0.207 | inactive
ADAM30 (ADAM metallopeptidase domain 30) | -0.402 | -1.13 | -0.261 | inactive
SAMD10 (sterile alpha motif domain containing 10) | -0.812 | -0.432 | -1.43 | inactive
ZNF772 (zinc finger protein 772) | 0.0132 | 0.328 | 0.156 | inactive
NDUFC2 (NADH:ubiquinone oxidoreductase subunit C2) | -0.438 | -0.646 | -0.853 | inactive
CDC73 (cell division cycle 73) | -0.321 | -0.722 | -0.196 | inactive
FLJ46875 | 0.0802 | -0.0501 | 0.0959 | inactive
CCDC196 (coiled-coil domain containing 196) | 2.22 | 1.75 | 2.19 | active
CLU (clusterin) | -1.64 | -1.23 | -1.91 | inactive
DUSP14 (dual specificity phosphatase 14) | 0.00936 | 0.45 | -0.18 | inactive
PPOX (protoporphyrinogen oxidase) | -0.904 | -1.29 | -0.903 | inactive
LOC389276 (retired record) | -1.1 | -0.633 | -0.46 | inactive
ACOXL-AS1 (ACOXL antisense RNA 1) | 0.403 | -0.0915 | 0.581 | inactive
OR8U8 (olfactory receptor family 8 subfamily U member 8) | -1.5 | -1.23 | -1.22 | inactive
CBX7 (chromobox 7) | 2.79 | 5.15 | 3.43 | active
SCLY (selenocysteine lyase) | -0.337 | -0.206 | -0.0622 | inactive
STOML2 (stomatin like 2) | 1.1 | -1.22 | 0.34 | inactive
MPST (mercaptopyruvate sulfurtransferase) | -0.39 | -0.75 | -1.33 | inactive
LINC01940 (long independently transcribed non-coding RNA 1940) | 0.753 | 0.935 | 1.5 | inactive
MAGEA4 (MAGE family member A4) | -1.03 | -0.0142 | -0.705 | inactive
PEX2 (peroxisomal biogenesis factor 2) | 0.922 | 0.717 | 0.816 | inactive
FBXO43 (F-box protein 43) | 1.02 | 1.07 | 0.681 | inactive
MAJIN (membrane anchored junction protein) | -0.0561 | -0.197 | -0.435 | inactive
MAD1L1 (mitotic arrest deficient 1 like 1) | 0.012 | 0.549 | -0.892 | inactive
FBXL19-AS1 (FBXL19 antisense RNA 1) | -1.1 | -1.05 | -1.3 | inactive
NMB (neuromedin B) | -1.25 | -1.72 | -1.04 | inactive
LOC387937 (retired record) | 0.244 | -0.147 | -0.0847 | inactive
SERPINA6 (serpin family A member 6) | -1.46 | 0.064 | -0.638 | inactive
TACO1 (translational activator of cytochrome c oxidase I) | 0.16 | 1.69 | -1.32 | inactive
KLHL38 (kelch like family member 38) | 0.51 | 0.182 | 0.548 | inactive
ZNHIT2 (zinc finger HIT-type containing 2) | -0.389 | -0.64 | -1.35 | inactive
ATAD2B (ATPase family AAA domain containing 2B) | -1.91 | -0.917 | -0.119 | inactive
